Laboratory results from paper PMC8468827.

The chains behind the UniProt entries cited, without tags or fusion partners.
UniProt Q9VQ93: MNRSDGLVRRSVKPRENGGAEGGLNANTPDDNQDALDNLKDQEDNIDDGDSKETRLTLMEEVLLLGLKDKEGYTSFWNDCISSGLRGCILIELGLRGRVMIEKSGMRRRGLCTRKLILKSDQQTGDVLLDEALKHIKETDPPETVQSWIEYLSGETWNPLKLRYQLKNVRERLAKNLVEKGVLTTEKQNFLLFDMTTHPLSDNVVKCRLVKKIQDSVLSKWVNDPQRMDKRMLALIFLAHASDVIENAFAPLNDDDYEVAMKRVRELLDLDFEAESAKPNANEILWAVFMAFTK

Molecular target: dGOLPH3-mRFP (Drosophila) (UniProt Q9VQ93)
Experiment: affinity purification with mass spectrometry; RFP-trap beads on lysate of 3000 adult testes expressing dGOLPH3-RFP (RFP alone as control); lysis buffer 25 mM Tris-HCl pH 7.4, 150 mM NaCl, 1 mM EDTA, 1% NP-40; washes at 4 °C; nanoLC-MS/MS

Binder | binding
Alphabet (protein, UniProt Q9VAK1 1-368) MGGFLDKPKTAKHNDEGEGNKLLFGVSSMQGWRSEMEDAYYARAGLGDALPDWSFFAVFDGHAGCKVSEHCAKHLLESIISTEEFIGGDHVKGIRTGFLRIDEVMRELPEFTRESEKCGGTTAVCAFVGLTQVYIANCGDSRAVLCRQGVPVFATQDHKPILPEEKERIYNAGGSVMIKRVNGTLAVSRALGDYDFKNVKEKGQCEQLVSPEPEIFCQSRQDSDEFLVLACDGIWDVMSNEDVCSFIHSRMRVTSNLVSIANQVVDTCLHKGSRDNMSIIIIAFPGAPKPTEEAIEAEHRLEKQIEKITRDEIESSKITDYVDLLKCLQNRDDIEGLPPGGGLQSKYHVIERTFKQEFPDRPCESPTH | binds
Twins (protein, UniProt P36872 1-499) MGRWGRQSPVLEPPDPQMQTTPPPPTLPPRTFMRQSSITKIGNMLNTAININGAKKPASNGEASWCFSQIKGALDDDVTDADIISCVEFNHDGELLATGDKGGRVVIFQRDPASKAANPRRGEYNVYSTFQSHEPEFDYLKSLEIEEKINKIRWLQQKNPVHFLLSTNDKTVKLWKVSERDKSFGGYNTKEENGLIRDPQNVTALRVPSVKQIPLLVEASPRRTFANAHTYHINSISVNSDQETFLSADDLRINLWHLEVVNQSYNIVDIKPTNMEELTEVITAAEFHPTECNVFVYSSSKGTIRLCDMRSAALCDRHSKQFEEPENPTNRSFFSEIISSISDVKLSNSGRYMISRDYLSIKVWDLHMETKPIETYPVHEYLRAKLCSLYENDCIFDKFECCWNGKDSSIMTGSYNNFFRVFDRNSKKDVTLEASRDIIKPKTVLKPRKVCTGGKRKKDEISVDCLDFNKKILHTAWHPEENIIAVAATNNLFIFQDKF | binds
δCOP (protein, UniProt Q9W555 1-532) MVLIAAAVCTKNGKVILSRQFVEMTKARIEGLLAAFPKLMTAGKQHTYVETDSVRYVYQPMEKLYMLLITTKASNILEDLETLRLFSKVIPEYSHSLDEKEIVENAFNLIFAFDEIVALGYRESVNLAQIKTFVEMDSHEEKVYQAVRQTQERDARQKMREKAKELQRQRMEASKRGGPSLGGIGSRSGGFSADGIGSSGVSSSSGASSANTGITSIDVDTKSKAAASKPASRNALKLGGKSKDVDSFVDQLKNEGEKIANLAPAAPAGGSSAAASASAAAKAAIASDIHKESVHLKIEDKLVVRLGRDGGVQQFENSGLLTLRITDEAYGRILLKLSPNHTQGLQLQTHPNVDKELFKSRTTIGLKNLGKPFPLNTDVGVLKWRFVSQDESAVPLTINCWPSDNGEGGCDVNIEYELEAQQLELQDVAIVIPLPMNVQPSVAEYDGTYNYDSRKHVLQWHIPIIDAANKSGSMEFSCSASIPGDFFPLQVSFVSKTPYAGVVAQDVVQVDSEAAVKYSSESILFVEKYEIV | binds
Spaghetti Squash (Sqh) (protein, UniProt P40423 1-174) MSSRKTAGRRATTKKRAQRATSNVFAMFDQAQIAEFKEAFNMIDQNRDGFVEKEDLHDMLASLGKNPTDDYLDGMMNEAPGPINFTMFLTLFGERLQGTDPEDVIKNAFGCFDEENMGVLPEDRLRELLTTMGDRFTDEDVDEMYREAPIKNGLFDYLEFTRILKHGAKDKDEQ | binds
14-3-3ζ (protein, UniProt P29310 1-248) MSTVDKEELVQKAKLAEQSERYDDMAQAMKSVTETGVELSNEERNLLSVAYKNVVGARRSSWRVISSIEQKTEASARKQQLAREYRERVEKELREICYEVLGLLDKYLIPKASNPESKVFYLKMKGDYYRYLAEVATGDARNTVVDDSQTAYQDAFDISKGKMQPTHPIRLGLALNFSVFYYEILNSPDKACQLAKQAFDDAIAELDTLNEDSYKDSTLIMQLLRDNLTLWTSDTQGDEAEPQEGGDN | binds
translationally controlled tumor protein (Tctp) (protein, UniProt Q9VGS2 1-172) MKIYKDIITGDEMFADTYKMKLVDDVIYEVYGKLITRQGDDIKLEGANASAEEADEGTDITSESGVDVVLNHRLTECFAFGDKKSYTLYLKDYMKKVLAKLEEKSPDQVDIFKTNMNKAMKDILGRFKELQFFTGESMDCDGMVALVEYREINGDSVPVLMFFKHGLEEEKC | binds
Mitogen-activated protein kinase kinase (MAPKK) 4 (protein, UniProt O61444 1-424) MAERPKNLFATGSSRSRNPPDQLSLNNLSIRHPPSSTSSTSSGSTSSGSSSSSQHNHVTRCFGAQQPQQTPPVASSQVPPVPAASSSSAADRHRERIRQQACGKLQFGEGGANTHTFTSDDLEDEGEIGRGAFGAVNKMTFKKLDKVMAVKRIRSTVDEKEQKQLLMDLEVVMKSNECIYIVQFYGALFKEGDCWICMELMDTSLDKFYKYIYEKQQRHIPESILAKITVATVNALNYLKEELKIIHRDVKPSNILLHRRGDIKLCDFGISGQLVDSIAKTKDAGCRPYMAPERIDPERAKGYDVRSDVWSLGITLMEVATGNFPYRKWDSVFEQLCQVVQGEPPRLLTSYNGMEFSKEFVDFVNTCLIKKESDRPKYSRLLEMPFIRRGETSHTDVAVYVADILESMEKDGITQFTANQQAES | binds
Drosophila LST8 (protein, UniProt Q9W328 1-313) MGDQQQLILATGGYDHTIKVWQAHTGNCIKTMRFVETSQVNALDRTPDKTRLAACGYQCIRLYDLESNCTAPVINFDGVQKNVTRLGFQEDGNWMFTAGEDHHVRIWDMIAAPPHCSRIFDCEAPVNAACLHPNQVEIAMGSQNGSVFLWDVKSERHERIVPEVDASIQDVAISPDGRYLAAANNKGNCYIWSLTSQDQKMSTLRPNRKIPAHSRYILRCKFSPDSRLLLTTSGDGTVCIWKTDDFSKWRELCIENYWVWDAAFSADSKWLFTASSDGIARLWKLQTKSSIRDYTGHTKAITALSFKDEIVGK | binds
Defective transmitter release (Dtr) (protein, UniProt Q8INT5 1-1483) MSNSNRKEITGLNRMTPKGLKELCKKDKLYQTPRLNDVLYLHYQGFQCIESLEEYTELKCLWLECNAISEIQGLEKLSKLKCLFLQNNLITKIENLDPCRELDTLNLSSNHIRKIQNIGTNVLPVLNTLTISSNYLKDSESLSDLIQCKTLSVLDLSNNRIDDILIVKIFEQMLNLKVLVLQGNPVVSRLPQYRKTLILACKELTYLDSRPVFPRDRACAEAWKRDGYEGERKENNRWNRAERRKTRESINCTIRMRNSHRPPDQQDPLLRSSDSEDDTCAETARKKVALENGCVDDLWEEVSGEQPISEDGTNSSSSLEDNDGTSSQDDLIAEKLSNRRTLEGRPTVLYETEVSNVKSANNDINIFEEGVGKASQIIIEDKPVTKIKLINEPSCMNDKSAMNCTSMGPVVKENDFDEDAEIKNVDDMVPCQNLIKSNEDINSEFGFSSKLKQDFDQTCTALRNDAECKEFDEELTIKESESKPFNEMYDIFAAEDDKLNETLDLNLNETTCPHHVHDNFFSEQNKMPSFYEEDIMINLLPKTKEKTLLEKDSIIENEKCAHDLDEMGRQMEEDLAELRQSTQNLIGISIDETARTDSETDEEDLIAQQDPYSPLLKQQFKDRRMKIMLTEETKAQEESLSDRNIALSNESDQDDKQDQLFAKILDDATENIPKRIFGTGCDALSSVWPQEECLLQLTLPENKESPAQEDTFKKSITNSTSFEKANEICVRMDQKMAEEEEALGKLLHDLEGEINNVYDINTKVKYEENTSTNESDAVSICTSLLDDIIVGLTFDEVLCHEKPKSFEFGLIESDEEFSYSFEPKLEKLVPPALEDPARGKSLRECLDTFSDFVSSMADPKLPVMLGRNPTSGVEKIRAAQELLKTKNLSDLYKDTAESLNSQVAKEIEKRKRRVAASATRCFNQRDKYDDTLELVENRLMIVKKDSGDLEELPPPPPLISDTESEDDNPTEDNYTPGNEVHRHGTKTQDSKEHLMSNLLNQNQDDIIEGKKNDSAEDEFYSLEAMTTFGNLDAEFFQKLDLQKVNASEDSEPAINCMRSYNELQAYMKSGSLNTQLNSEEAEMLQTMCSRVASDVDKPKSQNSKEEEEDDLLKKMVLRMKEYEEREHQLQLISHETSSELGPIKLSIGGSKLFEQNTKIPESVLVHSENEPTRNNKPINTKNTNDKESSDIMEKNGDPSVTTSFKTSHKSIDDDIQSDVSTDYESGEEVVVVEPPTLSEAVLKSFYSDEFEADSKMVHELEEATRRNLRRYNPNIMHISTSNHPFSTNNILPTKTSTSELSEGAKAKWAKIAERLHEFLDPETIANLNKEQFGESDECEDSQDDNITDITVEETNLKKDTKLVVLEEYNNTHTCDGNSCPSKLDDSDQFASLKGFEKIKETPTHNMGLSSVMSASQNKTSETLPNEIGNKITDFSSFKTSSTDLINSEGVKTEQIQCNLQILSDEGDVVVEELSVNAQVSSFK | binds
Tektin-A (protein, UniProt Q9V3M9 1-585) MNCLEKKSPEANPECKGRTIELNPGSACPAPLICPLPTEPPSHRLKKPPQPALVALTPHPDEAAQQHLVQNIMGSAQEHQKLQADLQAGVDQQQMQLADMRAEQYKQSNKPLRMEEVQFARSMDPEADDLRNPPCYLPQQGDELPHKDQLMPMGPIGPWASGKVDWSPMAGITGTRPVVDRYSITRYSPNEWRTRNHETVQVVNASLGRADKNRFSSTTEFLRLSALVDKSQKETTDKLRIRSQLIGKWKNTLENAIKAMADEISTMEVERIKLRKSMVVLGVPESIAKECIEKRATRPDTELVRDQVEEELVNELALIAEIRRLLMKTLDDFNSQQVENRTARQRLEYDWSDKKESYEIDTINTGLNNCSRTIMFRPGAVRQPPEQASEKYWEHFSMETLDECEKCRLKSVALRNTLNSTLMNAARDIRTQADVVEKALTSRINCTQEAVQRFENDLKNILQGTADVENRIEQMKRRINSFDSSMKVAQTRMDNRSYRPNVENCRDLAQQELIDGVHTIQSSVSALLHELEEAERVKTDLVNSRARLEREIMLKRRSLFIDRERCMLMRSYYPSANTLSGAATS | binds
Rsph4a (protein, UniProt Q9W1D3 1-708) MDRDSCQNFSLDSTSSSHFAPPPVCAPRRKKPEKPAAEEASPECSNVTSSSSSSTTTISIGAFDSQCNLHNARNPEAPNIGYELNVAKSILQKYSTLSGDNLFDHLSDIIKRVIDERPPNVIDFFEEFSRNVREQKFHLPERFPPSGVFDEVRSFRVAKKILQSMKLPYVVEGEDLMGEDLSVEDLRTNEDMRIVIDDSMRYFVTFNERVQQLQFYWTQCGFSISNDDIFQLASAMNRLQTHPSIMQCRFWGCINGLKASYYIVEASLTREEIASRLVMMEEEMRQKQIPFPMRKDREDKPPPAHIGPELTPGIYGWEEFPPEELEKMKPKAAPVPLVEEMELYDIPPEFIGKGCNRYSYFVVNSLFDDWIELPIVTPRQIVVSRQIKKFLTGDLEADVISYPCFPGKEKHYLRTLIGRITAGTYIAPVGYYRRMTKKEQRMFDGEEEEEGEEEEEEEEEEEFNEGEEEQIEDNDVMLLKNEKYEAEPLGSLATPVAWVHVRSNILNQQGRVVWYDEEKARKEREKALALYLKMQMLGEMEEEVEEEEDEEEGEEEGEEEGMIEGFNQPELGPSILSSCANDMNPEVPVSWLARMTSKYTNQKERMLVMQSNVWPGAYTFIFEKTCESIYLGWGHKYYARNIPFKHLPMVQEEFPHNPEDFVEANDPTVEEEEAYKAWLLRKQQKAEYVAEDIEDYDDDEFADQYDDD | binds

Results are given in words; binding and its absence hold for the method and conditions named. Binding seen in cells or lysates may run through a third protein. Here binding means that the protein was enriched with, or labelled near, the bait; the list need not be complete.
